# From PubChem BioAssay AID1487 (National Center for Advancing Translational Sciences (NCATS), 2009)
# Some of the results follow. Shown are side measurements of this screen, not its main read-out; they come without a call. The list favours compounds with an active or inconclusive main result. Potencies come from curve fits of mixed quality, noted in brackets.
# Experiment: qHTS Assay for Modulators of Lamin A Splicing
# Details: HeLa LMNA splicing GFP/RFP minigene ratio, 48 h
# Method in brief: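 S3 HeLa stable clones carrying a lamin A-EGFP splicing minigene plus DsRed2 were seeded at 600 cells/well in Opti-MEM with 2% FBS, pin-dosed and incubated 48 h at 37°C. Acumen cytometry (488 nm) gave the GFP/RFP total-intensity ratio.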
# [1] = measured here: GFP splicing reporter channel
# [2] = measured here: RFP viability control channel
SMILES,AC50 [1],AC50 [2]
CCOc1cc(C2C(C(=O)Nc3ccccc3)=C(C)Nc3ncnn32)cc(Br)c1O (centres undefined),"0.00447 µM [falling, full curve, poor fit]",–
COc1ccc(NC(=O)CN2C(=O)CSc3ccc(S(=O)(=O)N(C)C)cc32)cc1OC,"1.58 µM [rising, full curve, poor fit]",–
O=C(CN1CCN(c2ccccc2O)CC1)NCCCc1ccccc1,"0.316 µM [rising, partial curve]","0.891 µM [rising, single point]"
Cc1nc([N+](=O)[O-])c(Br)n1CC(=O)c1ccc(Cl)cc1,"20 µM [falling, single point]","35.5 µM [falling, single point]"
CC1=NOC(=O)/C1=C\c1ccc(-c2ccc(Cl)cc2Cl)o1,"35.5 µM [falling, single point]","28.2 µM [falling, single point]"
CC(=O)Nc1ccc(OC[C@@H](O)CNC(C)C)cc1,"0.000891 µM [falling, full curve, poor fit]","0.000891 µM [falling, full curve, poor fit]"
CCOC(=O)c1c(C)c(C(=O)Nc2cc(OC)ccc2OC)c(C)n1CC,–,"35.5 µM [rising, single point]"
Cc1nc(COC(=O)c2cc(O)c3ccccc3c2O)cs1,"0.316 µM [falling, full curve, poor fit]",–
Cc1ccc(NC(=S)NCCC(c2ccccc2)c2ccccc2)c(C)c1,–,"31.6 µM [rising, single point]"
C=C(C)CNC(=S)NNC(=O)CCn1c2ccccc2c2ccccc21,"17.8 µM [rising, partial curve]","35.5 µM [rising, single point]"
C=CCc1ccc(OCC(O)COc2ccc(CC=C)cc2OC)c(OC)c1,"20 µM [falling, partial curve, poor fit]","20 µM [falling, partial curve, poor fit]"
CCCCN(C(=O)Nc1ccc(Cl)cc1)C1CCN(C(C)=O)CC1,–,"0.0282 µM [falling, full curve]"
CC(=O)Nc1ccccc1OCC(=O)NC(C)c1ccccc1 (centres undefined),–,"7.94 µM [rising, partial curve, poor fit]"
O=C(CN1CC(=O)Oc2ccccc21)OCC(=O)c1ccc(F)cc1,–,"0.0794 µM [rising, full curve]"
Cc1ccc2onc(CC(=O)N3CCN(c4ccc(Cl)cc4)CC3)c2c1,–,"17.8 µM [rising, single point]"
COc1ccc(-c2[nH]ncc2CN(C)C(C)c2ccon2)c(OC)c1 (centres undefined),–,"0.0447 µM [falling, full curve, poor fit]"
O=C(O)c1ccc(N/N=C/C=C/c2ccccc2[N+](=O)[O-])cc1,–,"8.91 µM [falling, partial curve]"
CCOc1ccc(N2C(=O)CC(Sc3nnnn3-c3ccccc3)C2=O)cc1 (centres undefined),–,"22.4 µM [falling, single point]"
CCN1C(=O)C=CC1=O,"5.01 µM [falling, full curve, poor fit]","6.31 µM [falling, single point]"
CC(=O)CCc1oc2ccc(C)cc2c1-c1ccc(C)o1,"12.6 µM [falling, partial curve, poor fit]",–

SMILES,AC50 [1],AC50 [2]
CC(=O)CC(=O)[C@@]1(O)CC[C@@H]2[C@@H]3C=C(C)C4=CC(=O)CC[C@@H]4[C@H]3CC[C@]21C,"1.12 µM [falling, single point]","2.24 µM [falling, single point]"
CC(C)COc1ccc(-c2nnc(-c3ccncc3)o2)cc1,–,"11.2 µM [rising, single point]"
O=c1[nH]c(-c2ccc3c(c2)OCO3)nc2c1sc(=S)n2-c1ccccc1,–,"0.0355 µM [falling, full curve, poor fit]"
O=C(COC(=O)c1ccccc1Br)Nc1cc(S(=O)(=O)N2CCOCC2)ccc1N1CCCC1,"0.0501 µM [falling, full curve, poor fit]",–
C=C(C)COc1ccc(-c2nc(N)ncc2Oc2ccc(OC)cc2)c(O)c1,"35.5 µM [falling, single point]","35.5 µM [falling, partial curve]"
COc1cc(SC)ccc1C(=O)N1CCN(c2ccccc2OC)CC1,"5.01 µM [falling, full curve, poor fit]",–
CC(C)Cn1c(=O)c(C(=O)Nc2ccccc2S(N)(=O)=O)c(O)c2ccccc21,–,"17.8 µM [rising, single point]"
Cc1ccc(C(=O)NC2CCN(CC(=O)NCc3cccs3)CC2)cc1,–,"0.00447 µM [falling, full curve]"
Cc1ccc(S(=O)(=O)N2CCCC(c3nc(-c4ccc(C)o4)no3)C2)cc1 (centres undefined),–,"31.6 µM [rising, single point]"
Cc1cc(C)c(C#N)c(SCC2COc3ccccc3O2)n1 (centres undefined),"12.6 µM [rising, partial curve]","12.6 µM [rising, partial curve]"
CCOc1ccc(NC(=O)C2CCCN(c3nn4cc(-c5ccc(OC)cc5)nc4s3)C2)cc1 (centres undefined),–,"0.02 µM [rising, full curve, poor fit]"
Cc1c(C(=O)Nc2ccc3oc(-c4cccnc4)nc3c2)oc2ccccc12,–,"15.8 µM [falling, single point]"
Cc1cc2nc(SCC(=O)Nc3ccccc3C(=O)O)[nH]c2cc1C,–,"0.158 µM [rising, full curve]"
Cc1ncoc1C(=O)N1CCCC(C(=O)c2ccc(-c3ccccc3)c(F)c2)C1 (centres undefined),–,"4.47 µM [falling, full curve, poor fit]"
CN1CCN(C(=O)c2ccc(CSc3ccc(Cl)cc3)cc2)CC1,–,"35.5 µM [rising, single point]"
CCCCCCN(C(=O)CCCCCN1C(=O)NC(c2ccc(-c3ccccc3)cc2)C(C(=O)OCc2ccccc2)=C1C)C(C(=O)NCCCC)c1ccc(OCC(=O)OC)cc1 (centres undefined),–,"0.126 µM [rising, partial curve, poor fit]"
CCn1ncc(/C=N\NC(=O)c2cc(-c3ccc(C)cc3C)nc3ccccc23)c1C,–,"25.1 µM [rising, single point]"
Cn1c(CN2CCOCC2)nc2cc(NC(=O)c3ccc(Cl)cc3)ccc21,–,"2.51 µM [rising, full curve]"
CCN(CC)S(=O)(=O)c1cc(NS(=O)(=O)c2c(Cl)cccc2Cl)ccc1C,–,"35.5 µM [rising, single point]"
O=C(NCC1(c2ccccc2)CCCC1)c1ccco1,–,"11.2 µM [falling, partial curve, poor fit]"

SMILES,AC50 [1],AC50 [2]
O=C(NNc1cc(N2CCCC2)nc(N2CCCC2)n1)c1ccc([N+](=O)[O-])cc1,–,"0.0282 µM [falling, full curve, poor fit]"
O=C(Nc1nnc(-c2cccs2)o1)c1cc(-c2ccccc2)nc2ccccc12,–,"4.47 µM [rising, full curve]"
COc1ccccc1NC(=O)C(C)Sc1nnnn1C (centres undefined),"0.891 µM [rising, full curve, poor fit]",–
Cc1nonc1CN(C)C(=O)CC1C(=O)NCCN1Cc1cccc(C(F)(F)F)c1 (centres undefined),"0.0224 µM [rising, full curve, poor fit]",–
Fc1ccccc1N1CCN(c2ncnc3c2nc2n3CCCCC2)CC1,"12.6 µM [falling, partial curve, poor fit]",–
N#Cc1c(NCCCO)nc(-c2ccccc2)c2c1CCCC2,–,"20 µM [rising, partial curve, poor fit]"
CC1=C(C(=O)OC2CCCCCC2)C(c2ccc(C)o2)C2=C(CCCC2=O)N1 (centres undefined),–,"35.5 µM [rising, single point]"
O=C(NNC(=O)c1cc(-c2ccccc2)nn1-c1ccccc1)c1ccccc1,–,"15.8 µM [rising, single point]"
COC(=O)N/N=C/c1cc(C)n(-c2cccc3ccccc23)c1C,"11.2 µM [rising, single point]",–
Cc1ccc(CNC(=O)CCS(=O)(=O)c2cc3c(cc2Cl)NC(=O)CO3)cc1,"11.2 µM [falling, single point]",–
CCOC(=O)c1[nH]c(C)c(/C(O)=C2\C(=O)C(=O)N(CCN(C)C)C2c2ccc(C)o2)c1C (centres undefined),–,"12.6 µM [rising, partial curve, poor fit]"
CC(CCc1ccccc1)NC(=O)c1nnc(Cc2ccc(F)cc2)o1 (centres undefined),"0.158 µM [falling, full curve, poor fit]",–
COCC(C)NC(=O)c1oc2c(c1C)C1(CCC2)SCCS1 (centres undefined),"20 µM [rising, single point]","17.8 µM [rising, partial curve, poor fit]"
O=C(CCc1nnc(-c2ccc3c(c2)OCO3)o1)N1CCC(c2ccc(F)cc2)C1 (centres undefined),"17.8 µM [rising, partial curve, poor fit]",–
O=C(NCc1ccc(F)cc1)c1cc(Sc2ccc(F)cc2F)nc2ccccc12,"0.0501 µM [falling, full curve, poor fit]",–
Cc1nn(C(=O)c2ccccc2)c(C)c1S(=O)(=O)N1CCOCC1,"0.00891 µM [falling, full curve, poor fit]",–
CCOC(=O)c1cc(S(=O)(=O)NC2CCN(C(=O)OCC)CC2)cn1C,–,"20 µM [rising, single point]"
O=S(=O)(NCc1ccccc1Cl)c1ccc(-c2cnc(C3CC3)o2)cc1,–,"3.98 µM [rising, single point]"

# 4 compounds drawn at random from the list so far, as already listed:
SMILES,AC50 [1],AC50 [2]
COC(=O)N/N=C/c1cc(C)n(-c2cccc3ccccc23)c1C,"11.2 µM [rising, single point]",–
O=C(Nc1nnc(-c2cccs2)o1)c1cc(-c2ccccc2)nc2ccccc12,–,"4.47 µM [rising, full curve]"
O=C(NCc1ccc(F)cc1)c1cc(Sc2ccc(F)cc2F)nc2ccccc12,"0.0501 µM [falling, full curve, poor fit]",–
CC(=O)CCc1oc2ccc(C)cc2c1-c1ccc(C)o1,"12.6 µM [falling, partial curve, poor fit]",–
